Test results: PubChem BioAssay AID1745846 (National Center for Advancing Translational Sciences (NCATS), 2022)
Hit rate of the full screen: of about 1,400 compounds, about 30 (2%) were called active. Not shown: some 15% with an inconclusive outcome. Calls follow the shape of the dose curve; as a rule, active = well fitted inhibition curve with a large enough effect; inconclusive = small, poorly fitted or top-dose-only effect; inactive = flat fitted curve, though single readings scatter. The list shows a part of the results.

test: Firefly Luciferase Counterscreen for Inhibitors of ATXN expression; settings: luminescence; series mostly up to 57.5 µM; activity change, negative = inhibition: at the top concentration
Text: University of Utah School of Medicine, Salt Lake City, Utah
Spinocerebellar ataxia type 2 (SCA2) is a multisystem neurodegenerative disease caused by a dominantly acting mutation leading to expansion of a polyQ domain in the ataxin-2 protein (ATXN2). SCA2 patients develop progressive ataxia and later lose function in other neuronal systems. Prominent parkinsonian signs develop in some patients. Like many neurodegenerative disorders, no symptomatic or disease-modifying treatments are known.
The primary objective of the proposed research is to identify compounds inhibiting ATXN2 expression and to test them for efficacy in SCA2 mouse models. We have developed a cell-based assay paired with an in vivo mouse model using identical luciferase expression constructs. This approach takes advantage of an ATXN2-luciferase transgene, with the luciferase gene flanked by the upstream and downstream portions of the ATXN2 gene. Here we describe a 5-7 dose quantitative high thoroughput screen (qHTS) for compounds lowering ATXN2 expression. We screened the NIH Molecular Libraries Small Molecule Repository (MLSMR) and NCGC's mechanistically annotated (MIPE) and drug repurposing (NPC) collections of compounds for lowering expression of an ATXN2-luciferase reporter in HEK-293 cells. The assay is a multiplexed cell viability assay to ensure target reduction in the absence of cytotoxicity. Secondary qHTS assays included a CMV-luciferase reporter expressed in HEK-293 cells as well as a biochemical assay using recombinant luciferase to detect inhibitors of the reporter enzyme. Compounds that inhibit ATXN2 expression but is not cytotoxic were selected for confirmatory and secondary screens.
PROTOCOL TABLE (as described by Inglese J, Shamu CE and Guy RK. 2007)
SEQUENCE No. (e.g., 1, 2, 3, etc.); […] (e.g., Cells, Incubation, Reagent, etc.); VALUE; DESCRIPTION.
2; Compounds; 23 nL; Kalypsis pintool (Wako USA) equipped with a 1536-well pin head.
3; Enzyme; 1 uL; recombinant firefly luciferase (prepared in 50 mM Tris HCl pH7.5, 10 mM MgCl2, 0.05% BSA, 0.01% Tween20) at final concentration of 10 nM. Wells containing buffer only were used as control (set as 100% inhibition when normalizing data).
4; Incubation; 10 min; room temperature.
5; Detection; Luminescence; Viewlux plate reader (PerkinElmer).
NOTES (numbers refer to Sequence numbers above)
1. Luciferase substrate is added to 1536 well, Greiner white assay plate. Evaporation was prevented by covering assay plates with metal lids containing holes to allow gas diffusion.
2. Compounds were added in a dose response manner with the final concentrations of 57, 11.4, 2.28, 0.46, 0.091, 0.018, 0.0037 uM. Vehicle-only plates, with DMSO being pin-transferred to columns 5-48, were inserted uniformly at the beginning and the end of each library to monitor and record any shifts in assay performance.
3. Recombinant firefly luciferase (10 nM final concentration) is added to the assay plate.
5. End-point luminescence is then measured on the Viewlux (PerkinElmer) imager equipped with a clear emission filter using a 2 sec exposure.
Inglese J, Shamu CE and Guy RK, Reporting data from high throughput screening of small molecule libraries, Nature Chemical Biology, 2007, 3(8): 438-441. doi.org/10.1038/nchembio0807-438.
% is scaled to controls: 0 for no effect and ±100 for the full control effect.

SMILES	activity change, negative = inhibition
NC(Cc1ccccc1)c1csc(Nc2nccc(C(F)(F)F)n2)n1 (centres undefined)	inactive: -3.34%
CCOC(=O)Oc1c(OC)cc(C(=O)O[C@@H]2C[C@@H]3CN4CCc5c([nH]c6cc(OC)ccc56)[C@H]4C[C@@H]3[C@H](C(=O)OC)[C@H]2OC)cc1OC	inactive: 0.594%
CC1(C)c2[nH]c3ccccc3c2C[C@H]2C(=O)N(Cc3ccccc3F)C(=O)N21	inactive: 2.29%
CCCCC(=O)NC(c1ccccc1OC)c1ccc2cccnc2c1O (centres undefined)	inactive: -0.531%
CC1=CC(C)(C)Nc2ccc(OC(=O)CN3C(=O)C4CCCCC4C3=O)cc21 (centres undefined)	inactive: -4.38%
COc1ccccc1N(CC(=O)N/N=C(\C)c1ccccc1O)S(=O)(=O)c1ccc(C)cc1	inactive: 0.136%
CCc1nc2ccc(C(=O)Nc3cccc(NS(C)(=O)=O)c3)cn2c1N(CC)Cc1cccc(Br)c1	inactive: -4.24%
O=C(N/N=C/c1ccc(O)cc1O)c1ccc(NC(=O)C2CCCCC2)cc1	inactive: 6.11%
Cc1ccc(S(=O)(=O)Nc2cc(Cl)c(O)c3ncccc23)cc1	inactive: -6.05%
OC(c1ccccc1)(c1nc(/C=C/c2ccc(C(F)(F)F)cc2)cs1)C(F)(F)F (centres undefined)	inactive: -1.18%
COc1ccc(NC(=S)N(CCCN2CCOCC2)Cc2cn(C)c3ccccc23)cc1	inactive: -1.36%
O=C(c1ccc(CS(=O)Cc2ccccc2Cl)o1)N1CCN(c2cccc(Cl)c2)CC1 (centres undefined)	inactive: -12.9%
COc1cc2ccnc(Cc3cccc(OC)c3OC)c2cc1OC	inactive: -4.02%
O=[N+]([O-])c1ccc(/C=N/N=C/c2ccc([N+](=O)[O-])o2)o1	inactive: 1.32%
COc1ccc(Cc2nnc(N/N=C/c3ccccc3O)[nH]c2=O)cc1OC	inactive: -16.1%
Oc1cccc(C(Nc2nccs2)c2ccc3cccnc3c2O)c1 (centres undefined)	inactive: -9.22%
CCc1nc2c(OCCC3CCCCC3)cccn2c1N(C=O)Cc1ccc(OC)cc1	inactive: -5.33%
CCc1noc(C)c1C(=O)N1CCSC1=Nc1cccc(Cl)c1C	inactive: -2.77%
Cn1c2c(c(=O)n(C)c1=O)C(C(F)(F)F)(C(F)(F)F)N=C(CCC1CCCCC1)N2	inactive: -0.27%
Cc1ccc(OCCn2cc(/C=N/NC(=O)c3ccncc3)c3ccccc32)cc1	inactive: -19.1%
Cc1ccc(/C=N/Nc2ccnc3cc(Cl)ccc23)c(C)c1	inactive: -14.5%
Cc1cnc(C(=O)NNC(=O)c2ccc(Br)cc2)cn1	inactive: -2.36%
COc1ccc(/C=C2\SC(=S)N(CCCC(=O)NNC(=O)c3ccccc3O)C2=O)cc1	inactive: -6.61%
COc1ccc(-c2cc(NC=O)c3ncc(-c4cccc(C(=O)NCCN(C)C)c4)n3c2)cc1	inactive: -16.1%
Cc1ccc(C(=O)NNC(=O)CCCN2C(=O)/C(=C/c3ccccc3Cl)SC2=S)cc1	inactive: -5.14%

SMILES	activity change, negative = inhibition
Cn1c(CCc2nc3ccccc3[nH]2)nnc1SCC#N	inactive: 1.34%
Cc1nc(N2CCN(c3ccccn3)CC2)c2c(C)c(C(=O)N3CCN(c4ccc(F)cc4)CC3)sc2n1	inactive: 18.8%
Oc1ccc(N2CCN(c3ccnc4cc(Cl)ccc34)CC2)cc1	inactive: -6.51%
O=[N+]([O-])c1ccc2[nH]cc(S(=O)(=O)N3CCN(c4cccc(Cl)c4)CC3)c2c1	inactive: 2.95%
C/C(=N\NC(=O)c1cc(C2CC2)nc2ccccc12)c1ccc(O)cc1O	inactive: -7.04%
O=C(N/N=C/c1ccc([N+](=O)[O-])s1)c1ccccc1	inactive: -19.8%
C=CCc1cccc(CNc2nc3ccccc3n2C(C)C)c1O	inactive: -8.29%
C[n+]1c2n(c3ccccc31)N=C(c1ccccc1)CS2	inactive: -2.4%
Cc1cc(Br)c(OCc2ccc(C(=O)N/N=C3\CC4CC=CC34)cc2)c(Br)c1 (centres undefined)	inactive: -4.29%
CCN(CC(=O)Nc1cccc(OC)c1)CC(=O)Nc1ccc(Br)c(C)c1	inactive: -8.35%
CCn1cc(CN2CCC(C(=O)Nc3cccc(-c4cccc(Cl)c4)c3)CC2)c(C)n1	inactive: 0.197%
COc1cccc(Nc2nc(C(N)Cc3ccc(F)cc3)cs2)n1 (centres undefined)	inactive: 4.71%
COc1cccc(-c2nn(C)c3sc(C(=O)NCCCN(C)Cc4ccccc4)cc23)c1	inactive: -0.692%
CCOc1ccc2[nH]c3c(NCCC(C)C)ncnc3c2c1	inactive: -14.1%
CC(=O)NC(c1ccc(C)cc1)c1cc(Cl)c2cccnc2c1O (centres undefined)	inactive: -14.8%
O=C1N(c2ccccc2)C[C@@H]2C[C@@H](c3cc4ccccc4o3)N3CCC[C@@]123	inactive: -0.27%
COc1ccc(CC2C(=O)NC(C)C(=O)N(C)C3Cc4ccc(cc4)Oc4cc(ccc4O)CC(C(=O)NC(C)C(=O)NC(C)C(=O)N2C)N(C)C3=O)cc1 (centres undefined)	inactive: -0.0052%
Cc1cccc(C(=O)N[C@H](C(=O)Nc2ncc(C)s2)C(C)C)c1	inactive: -3.96%
COc1ccc(-c2csc(Nc3ccc(S(N)(=O)=O)cc3)n2)cc1OC	inactive: -10.9%
CCCCC(=O)N(CCOC)c1nnc(-c2ccccc2C)s1	inactive: -0.918%
CCCCn1c2ccc(F)cc2c2nnc(NN)nc21	inactive: -0.632%
CCN(CC)S(=O)(=O)c1ccc(C)c(NC(=S)N2CCN(c3ccccn3)CC2)c1	inactive: -0.456%
[O-][n+]1onc2c1CCc1c-2nn(-c2ccccc2Cl)[n+]1[O-]	inactive: -2.38%
CCOC(=O)N(C)c1c(CC)nc2c(OCc3ccccc3OC)cccn12	inactive: -3.91%

Three structures already listed, ordered by heavy-atom count, smallest number first.
SMILES	activity change, negative = inhibition
COc1ccc(Cc2nnc(N/N=C/c3ccccc3O)[nH]c2=O)cc1OC	inactive: -16.1%
CCc1nc2ccc(C(=O)Nc3cccc(NS(C)(=O)=O)c3)cn2c1N(CC)Cc1cccc(Br)c1	inactive: -4.24%
Cc1nc(N2CCN(c3ccccn3)CC2)c2c(C)c(C(=O)N3CCN(c4ccc(F)cc4)CC3)sc2n1	inactive: 18.8%
